PubChem BioAssay AID686937 | Drosophila RNAi Screening Center | 2013
The screen tested about 23,000 reagents; this is a random part of those that have a named target and a result. 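Reduced-secretion tags in replicate 1 do not always agree with the z-scores; no criterion for assigning the tags was given.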 Not stated in the record: the amount of reagent.

Test: 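Knock-downs that reduce output of a secreted reporter enzyme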 (primary screen)
Cell system: Drosophila S2 cells expressing secreted horseradish peroxidase
Knock-down reagent: long dsRNA against Drosophila genes
Timing: about 5.5 days (5 days dsRNA, then 12 h reporter induction)
Conditions: reporter expression induced after 5 days of dsRNA, read 12 h later; inducer not stated
Measurement: 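After 5 days of dsRNA and 12 h of reporter induction, medium peroxidase read by chemiluminescence and scored as per-plate z-score; higher values mean more reporter released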
Direction: z-score: higher = more reporter secreted into medium

gene knocked down	dsRNA	z-score, replicate 1	z-score, replicate 2	z-score, replicate 3	z-score, replicate 4	phenotype, replicate 1
Roc2	DRSC07313	0.33	0.41			
bys	DRSC18748	0.1	0.1			
ProtB	DRSC03373	0.38	0.19			
CG11068	DRSC19369	0.36	0.3			
CG7653	DRSC01886	0.22	0.04			
PIG-B	DRSC08216	0.45	0.53	0.47	0.22	
PIG-B	DRSC22598	0.17	-0.12			
fand	DRSC06967	-2.54	-1.32			reduced secretion
grim	DRSC11352	-2.35	-0.95			reduced secretion
CG32413	DRSC21591	0.18	-0.29			
CG32652 (retired record)	DRSC18942	0.57	0.38	0.69	0.4	
CG32652 (retired record)	DRSC22662	-0.4	0.17			
Osi7	DRSC12176	0.21	0.45			
Cpr66D	DRSC10640	-0.64	-0.15			
Cpr66D	DRSC10646	-8.02	0.22			
mRpL16	DRSC18550	0.5	0.56			
Arc2	DRSC06436	-0.08	-0.07			
PNKP	DRSC16512	0.43	0.38			
Pgcl	DRSC18815	0.41	-0.05			
CG4045	DRSC18518	0.11	0.15			
CG30156	DRSC04959	-0.21				
CG6052	DRSC10574	0	0.01			
Mbs	DRSC09414	0.78	0.7			
Mbs	DRSC10525	0.35	0.42			
Mbs	DRSC10553	0.48	0.38	1.19	0.64	
CG18417	DRSC10319	0.24	0.3			
CG13295	DRSC09969	0.56	0.41			
bif	DRSC18901	-0.35	-0.9			
bif	DRSC20313	0.21	0.41			
sti	DRSC09739	0.22	0.25			
sti	DRSC09740	-0.41	0.01			
Doa	DRSC13892	-0.24	-0.94			
Doa	DRSC13893	0.15	-0.47			
Doa	DRSC13895	0.33	0.38			
Doa	DRSC13896	0.19	0.19			
Doa	DRSC13897	0.51	0.39			
Doa	DRSC16650	-1.85	-1.1			reduced secretion

Only “z-score, replicate 1” (5 entries from above):
Pgcl [DRSC18815] = 0.41
CG4045 [DRSC18518] = 0.11
CG30156 [DRSC04959] = -0.21
CG6052 [DRSC10574] = 0
Mbs [DRSC09414] = 0.78
